These are yes or no findings as the source states them, for the method shown. Some binding calls cover weakened binding; strength is not graded here.
Target: full-length human STAT5B (M1-S787) (human) (UniProt P51692)
Experiment: SEC; gel filtration of full-length STAT5B (Supplementary Fig. 5); conditions not shown; both purified

Protein sequences, listed by entry. Tags and fused reporters are not part of them.
UniProt P51692: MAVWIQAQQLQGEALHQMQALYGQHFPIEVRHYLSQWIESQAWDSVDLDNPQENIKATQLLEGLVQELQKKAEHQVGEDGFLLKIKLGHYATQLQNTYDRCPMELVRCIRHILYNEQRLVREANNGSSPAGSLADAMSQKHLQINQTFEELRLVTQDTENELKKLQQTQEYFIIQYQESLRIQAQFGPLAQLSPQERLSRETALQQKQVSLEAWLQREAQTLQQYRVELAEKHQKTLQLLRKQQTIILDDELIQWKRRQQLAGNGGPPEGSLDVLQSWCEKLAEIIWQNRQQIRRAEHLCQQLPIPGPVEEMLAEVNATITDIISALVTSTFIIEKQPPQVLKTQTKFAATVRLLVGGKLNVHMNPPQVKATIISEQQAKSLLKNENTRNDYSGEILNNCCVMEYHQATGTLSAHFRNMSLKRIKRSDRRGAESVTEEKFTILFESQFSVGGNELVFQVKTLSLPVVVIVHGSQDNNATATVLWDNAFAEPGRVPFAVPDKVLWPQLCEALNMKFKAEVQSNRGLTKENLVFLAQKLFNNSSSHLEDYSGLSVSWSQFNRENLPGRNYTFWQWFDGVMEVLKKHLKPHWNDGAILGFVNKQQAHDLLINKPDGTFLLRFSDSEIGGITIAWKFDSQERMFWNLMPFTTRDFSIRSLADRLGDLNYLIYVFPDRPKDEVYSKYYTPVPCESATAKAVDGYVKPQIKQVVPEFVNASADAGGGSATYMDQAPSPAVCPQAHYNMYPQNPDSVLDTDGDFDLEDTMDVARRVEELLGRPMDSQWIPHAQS

Substance: full-length human STAT5B (M1-S787) (from UniProt P51692 1-787)
- binding: binds

From article PMC6555848
